# PubChem BioAssay AID1224826 – NIAID | 2016
# Purpose: 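Genes that change LPS-induced Tnf promoter activity in mouse macrophages when knocked down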 (primary screen)
# Cells: RAW264.7 G9 macrophages from mouse bearing reporters for p65 (GFP) and the Tnf promoter (mCherry)
# Reagent: siRNA pool against mouse genes, 100 nM
# Duration: 16 h of LPS stimulation, after 2 days of siRNA transfection
# Challenge: bacterial lipopolysaccharide (Salmonella minnesota R595), 10 ng/ml
# Measurement: 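Imaged Tnf reporter mCherry in nuclei, minus background, normalised per plate to the median and expressed as robust z-scores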
# Reading the numbers: Tnf reporter robust z-score: higher = stronger Tnf promoter reporter signal after LPS; Tnf reporter intensity: higher = stronger Tnf promoter reporter signal
# Call rule: 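Called active when robust z-score is at most -1.3, matching the median of the Tlr4 knock-down control, or over 3; control wells and wells with under 50 cells never active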
# Meaning of the calls: active = Tnf reporter clearly lowered or raised; inactive = no clear change in Tnf reporter
# Here is a random part of about 17,000 reagents. About 1,110 of them (6.6%) count as active. 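Active means lowered or raised reporter signal; replicate intensities are raw and not normalised per plate.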 Unmarked entries are inactive. The numbers tell different reagents against one gene apart.
Gene,reagent no.,Tnf reporter robust z-score,fewer than 50 cells in well,"Tnf reporter intensity, replicate 1","Tnf reporter intensity, replicate 2"
Zfp729a (zinc finger protein 729a),1,0.77,enough cells in well,161,252
Or2ag1 (olfactory receptor family 2 subfamily AG member 1),1,-0.37,enough cells in well,81,102
Dcaf5 (DDB1 and CUL4 associated factor 5),1,0.21,enough cells in well,101,170
Ubiad1 (UbiA prenyltransferase domain containing 1),1,-1.81 (active),enough cells in well,112,30.3
Zbtb21 (zinc finger and BTB domain containing 21),1,,fewer than 50 cells per well; well left out of calls,20.5,47.6
Nog (noggin),1,-0.5,enough cells in well,173,173
Or9a7 (olfactory receptor family 9 subfamily A member 7),1,3.42 (active),enough cells in well,210,256
Calcrl (calcitonin receptor-like),1,-0.82,enough cells in well,135,251
Med18 (mediator complex subunit 18),1,1.91,enough cells in well,400,119
Fjx1 (four jointed box 1),1,0.5,enough cells in well,271,172
Thrsp (thyroid hormone responsive),1,-0.48,enough cells in well,174,126
Dnaaf9 (dynein axonemal assembly factor 9),1,,fewer than 50 cells per well; well left out of calls,359,92.9
Nup107 (nucleoporin 107),1,-1.31 (active),enough cells in well,112,36.9
Trpm1,1,0.12,enough cells in well,254,221
"Tas2r130 (taste receptor, type 2, member 130)",1,0.58,enough cells in well,361,78.1
Rala (Ras like proto-oncogene A),1,-0.48,enough cells in well,254,175
Entr1 (endosome associated trafficking regulator 1),1,5.63 (active),enough cells in well,331,463
Morc4 (microrchidia 4),1,-0.89,enough cells in well,133,93.9
"Kcnj9 (potassium inwardly-rectifying channel, subfamily J, member 9)",1,-0.23,enough cells in well,206,261
1600014C10Rik (RIKEN cDNA 1600014C10 gene),1,2.03,enough cells in well,290,172
"Psmd4 (proteasome (prosome, macropain) 26S subunit, non-ATPase, 4)",1,3.69 (active),enough cells in well,558,426
Or8g55 (olfactory receptor family 8 subfamily G member 55),1,1,enough cells in well,175,200
Pycr1 (pyrroline-5-carboxylate reductase 1),1,0.38,enough cells in well,359,224
Myoz2 (myozenin 2),1,-0.84,enough cells in well,154,80.4
Yae1d1 (Yae1 domain containing 1),1,-0.82,enough cells in well,204,51.9
Ddb1 (damage specific DNA binding protein 1),1,0.29,enough cells in well,228,252
"Siva1 (SIVA1, apoptosis-inducing factor)",1,-0.49,enough cells in well,270,149
Ccdc50 (coiled-coil domain containing 50),1,,fewer than 50 cells per well; well left out of calls,213,51
Gkn1 (gastrokine 1),1,-0.53,enough cells in well,193,119
"Slitrk4 (SLIT and NTRK-like family, member 4)",1,-1.07,enough cells in well,70.6,43
"Ms4a19 (membrane-spanning 4-domains, subfamily A, member 19)",1,-1.03,enough cells in well,149,51.1
Ndufa10 (NADH:ubiquinone oxidoreductase subunit A10),1,-1.28,enough cells in well,150,48.6
Unc5d (unc-5 netrin receptor D),1,0.55,enough cells in well,136,109
Mc1r (melanocortin 1 receptor),1,-0.76,enough cells in well,157,226
"Supt16 (SPT16, facilitates chromatin remodeling subunit)",1,1.23,enough cells in well,163,121
Dhx35 (DEAH-box helicase 35),1,-0.54,enough cells in well,204,91.4
Defb3 (defensin beta 3),1,1.99,enough cells in well,320,265
Slc22a6,1,0.87,enough cells in well,130,78.1
Krt2 (keratin 2),1,0.77,enough cells in well,251,226
Krtap19-9b (keratin associated protein 19-9B),1,1.01,enough cells in well,245,213
Calcoco1 (calcium binding and coiled coil domain 1),1,,fewer than 50 cells per well; well left out of calls,254,40.2
Ndufb4 (NADH:ubiquinone oxidoreductase subunit B4),1,-0.39,enough cells in well,218,80.2
"Alkbh2 (alkB homolog 2, alpha-ketoglutarate-dependent dioxygenase)",1,-1.17,enough cells in well,85,101
H2ap (H2A.P histone),1,2.92,enough cells in well,416,164
Chi3l1 (chitinase 3 like 1),1,1.03,enough cells in well,97.4,262
Inmt (indolethylamine N-methyltransferase),1,0.03,enough cells in well,128,86.8
Or6c217 (olfactory receptor family 6 subfamily C member 217),1,,fewer than 50 cells per well; well left out of calls,29.1,33.6
Mmp1b (matrix metallopeptidase 1b (interstitial collagenase)),1,3.73 (active),enough cells in well,390,307
Rere (arginine glutamic acid dipeptide (RE) repeats),1,-0.85,enough cells in well,226,142
Prp2 (proline rich protein 2),1,1.5,enough cells in well,201,189
Ift46 (intraflagellar transport 46),1,2.02,enough cells in well,407,139
Cpa5 (carboxypeptidase A5),1,-0.39,enough cells in well,191,190
Synpo2 (synaptopodin 2),1,0.36,enough cells in well,130,106
Slc7a11,1,-0.02,enough cells in well,92.1,106
Ccp110 (centriolar coiled coil protein 110),1,1.39,enough cells in well,117,222
Afap1 (actin filament associated protein 1),1,-0.66,enough cells in well,191,55.8
Trmt112 (tRNA methyltransferase 11-2),1,-0.2,enough cells in well,296,57.3
Eif1b (eukaryotic translation initiation factor 1B),1,-0.83,enough cells in well,193,54.1
"Haus7 (HAUS augmin-like complex, subunit 7)",1,0.9,enough cells in well,422,78.1
"Clec4f (C-type lectin domain family 4, member f)",1,-1.13,enough cells in well,61.7,164
Tjp3 (tight junction protein 3),1,-1.22,enough cells in well,65,58.3
"Usp9y (ubiquitin specific peptidase 9, Y chromosome)",1,0.41,enough cells in well,280,238
Ano4 (anoctamin 4),1,,fewer than 50 cells per well; well left out of calls,83.5,55.8
Ggt7 (gamma-glutamyltransferase 7),1,-0.25,enough cells in well,258,104
Trh (thyrotropin releasing hormone),1,-0.29,enough cells in well,180,239
Xylt2 (xylosyltransferase II),1,1.11,enough cells in well,121,228
Pex26 (peroxisomal biogenesis factor 26),1,,fewer than 50 cells per well; well left out of calls,228,90.3
"Rictor (RPTOR independent companion of MTOR, complex 2)",1,,fewer than 50 cells per well; well left out of calls,285,10.3
Pdzk1ip1 (PDZK1 interacting protein 1),1,-0.69,enough cells in well,203,64
Ambra1 (autophagy/beclin 1 regulator 1),1,-0.84,enough cells in well,146,112
Gpatch4 (G patch domain containing 4),1,0.31,enough cells in well,264,81.2
Kifc5b (kinesin family member C5B),1,-0.11,enough cells in well,220,153
Kifc5b (kinesin family member C5B),2,0.23,enough cells in well,250,167
Or8k18 (olfactory receptor family 8 subfamily K member 18),1,-0.12,enough cells in well,148,170
Mb21d2 (Mab-21 domain containing 2),1,-0.7,enough cells in well,97.3,123

Only “fewer than 50 cells in well” (11 entries from above):
Krt2 (keratin 2): enough cells in well
Krtap19-9b (keratin associated protein 19-9B): enough cells in well
Calcoco1 (calcium binding and coiled coil domain 1): fewer than 50 cells per well; well left out of calls
Ndufb4 (NADH:ubiquinone oxidoreductase subunit B4): enough cells in well
Alkbh2 (alkB homolog 2, alpha-ketoglutarate-dependent dioxygenase): enough cells in well
H2ap (H2A.P histone): enough cells in well
Chi3l1 (chitinase 3 like 1): enough cells in well
Inmt (indolethylamine N-methyltransferase): enough cells in well
Or6c217 (olfactory receptor family 6 subfamily C member 217): fewer than 50 cells per well; well left out of calls
Mmp1b (matrix metallopeptidase 1b (interstitial collagenase)): enough cells in well (active)
Rere (arginine glutamic acid dipeptide (RE) repeats): enough cells in well
